Reference: patent US6358710
These are yes or no findings as the source states them, for the method shown. Some entries that bind do so weakly or less than the wild type.

Target: T1, NR-LU-10 or NR-LU-13 antigen (approximately 40 kilodalton glycoprotein antigen expressed by many carcinomas) (human) (UniProt P16422)
T1 sequence (looked up): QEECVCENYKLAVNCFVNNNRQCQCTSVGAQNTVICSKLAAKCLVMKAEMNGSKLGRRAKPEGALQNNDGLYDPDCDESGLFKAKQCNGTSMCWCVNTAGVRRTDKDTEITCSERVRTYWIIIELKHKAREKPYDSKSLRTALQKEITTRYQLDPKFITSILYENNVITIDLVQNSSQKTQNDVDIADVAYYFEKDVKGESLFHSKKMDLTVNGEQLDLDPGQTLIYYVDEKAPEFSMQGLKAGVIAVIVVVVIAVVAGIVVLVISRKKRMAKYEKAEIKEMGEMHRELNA
Experiment: competitive ELISA, plate coated with NP40 extract of LS174 cells, competitor peroxidase-labeled murine NR-LU-10

B1: humanized NRX451 antibody (antibody, V domains shown)
VH: QVQLVQSGAEVKKPGASVKVSCKASGFNIKDTYMHWVRQAPGQGLQWMGRIDPANGNTKCDLSFQGRVTITADTSINTAYMELSSLRSDDTAVYYCSREVLTGTWSLDYWGQGTLVTVSS
VL: DIQMTQSPSSLSASVGDRVTITCRASQGIRGNLDWYQQKPGKGPKLLIYSTSNLNSGVPSRFSGSGSGSDYTLTISSLQPEDFATYYCLQRNAYPYTFGQGTKLEIK
For B1, the binding was “binds”.
